Measurements taken from patent US20230265212A1 (OVERA, published 2023).
Results are given in words; binding and its absence hold for the method and conditions named. Binding calls can cover weak binding; strength is not graded here. Values belong to the binder of their own block, whether it stands above or below them.

How the values were obtained:
[1] = molecular target: Macaca nemestrina SAS1B on oocytes of ovarian cortex (Macaca nemestrina); assay: immunohistochemistry on Macaca nemestrina ovary
[2] = molecular target: Macaca nemestrina SAS1B on oocytes of ovarian cortex (Macaca nemestrina); assay: immunohistochemistry on FFPE Macaca nemestrina ovarian cortex

binding [1]: binds | binding [2]: binds
B1: monoclonal antibody OV119 (antibody, V domains shown)
VH: EVQLQESGPELVKPGASVKISCKTSGYTFTEYPMHWVKQSHGKSLEWIGGINPNNGDTTYNQRFKGKATLTVDKSSGTAYMELRSLTSEDSAVYYCVPNFDWFAYWGQGTLVTVSP
VL: DVLMTQSPLSLPVSLGDQASISCRSSQSIVHSYGNTYLEWYLQKPGQSPKLLIYKVSNRFSGVPDRFSGSGSGTDFTLRISRVEAEDLGIYYCFQGSHLPFTFGGGTKLEIK
notes: Mouse hybridoma monoclonal IgG; also called naked OV119 (unconjugated)

binding [2]: binds
B2: monoclonal antibody OV115 (antibody, V domains shown)
VH: DVQLQESGPGLVKPSQSLSLTCTVTGYSLTSDYAWNWIRQFPGKKVEWMGYLSYSGRTSYNPSLKSRISITRDTSRNQFFLQLNSVTTEDTATYYCARMGGNFGFDYWGQGTTLTVST
VL: GIVMTQAPLSLPVSLGDQASISCRSSQSLVHINGSTYLHWYLQKPGQSPNLLIYKVSYRFSGVPDRFSGSGSGTDFTLKITRVEAEDLGVYFCSQSTHVPLTFGSGTKLEIK
